PubChem BioAssay AID1259254 | NCATS | 2017

- Assay: 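Gene knock-downs that lead to re-replication, shown by excess G2 DNA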 (primary screen)
- System: human HCT116 colorectal cancer cells
- Knock-down reagent: single siRNA against human genes
- Timing: 3 days
- Read-out: 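Nuclei stained with Hoechst and imaged; cell-cycle phase assigned by DNA content; G2 share scaled per plate, non-targeting siRNA 0%, GMNN siRNA 100%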
- Reading the numbers: G2 robust z-score and G2 cells, % of GMNN control: higher = more G2 cells, more excess DNA replication; raw share of cells in G2: higher = larger share of cells with G2 DNA content
- Rule for the call: 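An siRNA counts as active if its G2 robust z-score lies at least 5 MADs above the screen median; here such calls match roughly 38% of GMNN control or more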
This is one part, drawn at random, of about 59,000 reagents tested. About 1,550 of them (2.6%) were called active. 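G2 share is only a proxy for re-replication; each gene was hit by three separate siRNAs, and active genes were retested.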 The raw values are shown without normalisation. Unmarked entries are inactive. The numbers tell different reagents against one gene apart. No sequences are given here. The record does not give: the amount of reagent.

The first 5 records, to show the layout:
no.	gene knocked down	siRNA no.	G2 robust z-score	G2 cells, % of GMNN control	raw share of cells in G2 (%)
1	TMEM263	1	2.18	18.3	11.9
2	TMEM263	2	-0.617	-1.37	2.57
3	TMEM263	3	-0.216	1.45	3.38
4	CEP97	1	-1.03	-4.3	2.71
5	CEP97	2	-0.592	-1.2	4.07

The list itself, from the first entry:
no.	gene knocked down	siRNA no.	G2 robust z-score	G2 cells, % of GMNN control	raw share of cells in G2 (%)
1	TMEM263	1	2.18	18.3	11.9
2	TMEM263	2	-0.617	-1.37	2.57
3	TMEM263	3	-0.216	1.45	3.38
4	CEP97	1	-1.03	-4.3	2.71
5	CEP97	2	-0.592	-1.2	4.07
6	CEP97	3	-0.592	-1.19	2.38
7	PAK4	1	2.64	21.6	12.3
8	PAK4	2	0.88	9.16	8.52
9	PAK4	3	0.0274	3.16	4.69
10	C10orf88	1	0.178	4.22	6.2
11	C10orf88	2	2.1	17.7	12.1
12	C10orf88	3	3.79	29.6	10.5
13	GTF2IRD2	1	2.12	17.9	9.11
14	GTF2IRD2	2	0.105	3.71	7.58
15	GTF2IRD2	3	5.25 (active)	39.9	16.2
16	LSP1P5	1	0.894	9.26	7.16
17	LSP1P5	2	-0.322	0.702	3.53
18	LSP1P5	3	-0.0169	2.85	3.98
19	YAF2	1	0.436	6.04	5.26
20	YAF2	2	1.48	13.4	10.3
21	YAF2	3	4.79	36.7	19.6
22	DPM2	1	-0.776	-2.49	3.82
23	DPM2	2	-1.07	-4.6	3.65
24	DPM2	3	0.503	6.51	7.49
25	NMRK2	1	0.182	4.25	5.04
26	NMRK2	2	1.5	13.5	9.8
27	NMRK2	3	-1.44	-7.17	2.58
28	RPS26P8	1	0.514	6.59	6.14
29	RPS26P8	2	3.76	29.4	13.8
30	RPS26P8	3	-0.403	0.132	3.18
31	PHLDA3	1	2.49	20.5	10.4
32	PHLDA3	2	0.667	7.66	7.29
33	PHLDA3	3	-0.572	-1.06	3.48
34	NMRK1	1	0.517	6.61	5.97
35	NMRK1	2	-0.343	0.553	4.5
36	NMRK1	3	-1.07	-4.59	1.68
37	MGAT4EP	1	-0.594	-1.21	2.71
38	MGAT4EP	2	1.24	11.7	8.13
39	MGAT4EP	3	0.787	8.5	6.64
40	ADGRE3	1	-0.088	2.35	6.68
41	ADGRE3	2	0.328	5.27	6.36
42	ADGRE3	3	-0.529	-0.756	3.04
43	TTC3	1	-0.835	-2.91	4.37
44	TTC3	2	-0.039	2.69	5.36
45	TTC3	3	3.21	25.5	13.8
46	EN2	1	-0.65	-1.6	4.65
47	EN2	2	2.76	22.4	13.8
48	EN2	3	-0.94	-3.65	2.36
